For the assay, the target named is HR4^Col-0 (overexpressed in N. benthamiana) (A. thaliana) (UniProt Q9SCS6). As to the kind of experiment: SDS-resistant dimers on SDS-PAGE immunoblot. A general note: In western blotting, separated proteins are transferred to a membrane and probed.

No constants are given. Whether binding was seen depends on the method and setting.

B1: HR4^Col-0 (overexpressed in N. benthamiana) (protein, UniProt Q9SCS6 1-200)
chain: MPIAELAVIKTVGGPLIAAALGVGAQVIYDGFRKGKDTSIINRLGRTMESISPVRDRIGKLSNVEGKPFREVHESLTRLLEDAKSIIEKYWKLRWSRHVCRKYRYIKKLESIELELVRVAREIQVHQWTDIKEMKAIQVHQWTDIKEMKAIQVDQWTDIKEMKAIQVDQWIDIKEMKAIQVDQWTDIKEMKAQISEKHNK
In the case of B1, the binding result is “no binding”.
